Consider 2 molecules from paper PMC4182580.

The chains behind the UniProt entries cited, without tags or fusion partners.
UniProt O60293: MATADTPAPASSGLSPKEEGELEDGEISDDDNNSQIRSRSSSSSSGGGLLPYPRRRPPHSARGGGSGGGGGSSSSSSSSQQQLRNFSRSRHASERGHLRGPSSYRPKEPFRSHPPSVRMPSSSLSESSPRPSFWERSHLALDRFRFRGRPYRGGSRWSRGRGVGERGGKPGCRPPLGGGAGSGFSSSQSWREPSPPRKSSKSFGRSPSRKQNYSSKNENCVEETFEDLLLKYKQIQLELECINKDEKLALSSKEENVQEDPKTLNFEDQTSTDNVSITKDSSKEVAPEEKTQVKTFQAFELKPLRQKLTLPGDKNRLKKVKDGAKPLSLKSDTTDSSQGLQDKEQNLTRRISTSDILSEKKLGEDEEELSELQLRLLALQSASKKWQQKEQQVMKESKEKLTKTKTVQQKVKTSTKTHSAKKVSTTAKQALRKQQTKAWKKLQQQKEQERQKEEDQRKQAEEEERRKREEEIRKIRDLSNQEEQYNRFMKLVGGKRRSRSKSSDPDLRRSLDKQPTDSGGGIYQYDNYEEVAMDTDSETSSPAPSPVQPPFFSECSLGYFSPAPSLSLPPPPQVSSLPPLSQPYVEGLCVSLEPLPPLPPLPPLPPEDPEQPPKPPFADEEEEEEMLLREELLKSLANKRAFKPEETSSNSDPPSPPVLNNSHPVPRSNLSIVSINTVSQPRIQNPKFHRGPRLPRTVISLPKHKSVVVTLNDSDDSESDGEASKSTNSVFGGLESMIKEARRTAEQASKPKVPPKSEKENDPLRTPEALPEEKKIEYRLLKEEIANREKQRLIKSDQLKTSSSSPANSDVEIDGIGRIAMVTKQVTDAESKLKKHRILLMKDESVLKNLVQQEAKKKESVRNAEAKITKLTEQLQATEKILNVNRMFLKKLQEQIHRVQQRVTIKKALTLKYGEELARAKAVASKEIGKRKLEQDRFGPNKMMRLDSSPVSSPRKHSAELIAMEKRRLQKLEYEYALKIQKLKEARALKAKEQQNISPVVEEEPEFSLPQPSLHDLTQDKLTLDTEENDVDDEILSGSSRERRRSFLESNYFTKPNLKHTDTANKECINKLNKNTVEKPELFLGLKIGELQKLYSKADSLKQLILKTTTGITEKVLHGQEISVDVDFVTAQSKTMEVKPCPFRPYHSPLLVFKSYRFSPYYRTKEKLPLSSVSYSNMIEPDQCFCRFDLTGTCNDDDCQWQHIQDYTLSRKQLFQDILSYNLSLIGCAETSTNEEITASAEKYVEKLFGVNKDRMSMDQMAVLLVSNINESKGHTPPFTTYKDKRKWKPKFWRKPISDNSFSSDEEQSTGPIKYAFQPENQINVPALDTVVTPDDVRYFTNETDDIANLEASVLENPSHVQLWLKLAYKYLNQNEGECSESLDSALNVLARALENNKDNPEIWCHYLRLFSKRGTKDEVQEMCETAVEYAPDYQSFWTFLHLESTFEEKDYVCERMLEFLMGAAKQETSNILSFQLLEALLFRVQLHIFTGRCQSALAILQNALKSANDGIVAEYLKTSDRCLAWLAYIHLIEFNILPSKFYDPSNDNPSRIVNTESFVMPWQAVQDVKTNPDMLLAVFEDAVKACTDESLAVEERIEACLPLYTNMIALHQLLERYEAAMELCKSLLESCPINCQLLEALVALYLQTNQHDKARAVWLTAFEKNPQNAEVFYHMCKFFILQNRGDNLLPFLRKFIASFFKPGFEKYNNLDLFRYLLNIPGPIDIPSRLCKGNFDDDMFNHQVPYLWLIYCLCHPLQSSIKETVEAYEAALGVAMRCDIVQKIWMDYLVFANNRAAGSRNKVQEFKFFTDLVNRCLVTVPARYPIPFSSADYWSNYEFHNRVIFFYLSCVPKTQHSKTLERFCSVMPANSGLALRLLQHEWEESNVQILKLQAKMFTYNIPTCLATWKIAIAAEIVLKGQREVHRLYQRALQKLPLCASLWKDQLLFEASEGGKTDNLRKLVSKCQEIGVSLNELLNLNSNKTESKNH

Results are given in words; binding and its absence hold for the method and conditions named. In cells and extracts the contact can be indirect.

In test [1] the target is T1, ERCC1 (human (endogenous in HeLa)) (UniProt P07992).
T1 sequence: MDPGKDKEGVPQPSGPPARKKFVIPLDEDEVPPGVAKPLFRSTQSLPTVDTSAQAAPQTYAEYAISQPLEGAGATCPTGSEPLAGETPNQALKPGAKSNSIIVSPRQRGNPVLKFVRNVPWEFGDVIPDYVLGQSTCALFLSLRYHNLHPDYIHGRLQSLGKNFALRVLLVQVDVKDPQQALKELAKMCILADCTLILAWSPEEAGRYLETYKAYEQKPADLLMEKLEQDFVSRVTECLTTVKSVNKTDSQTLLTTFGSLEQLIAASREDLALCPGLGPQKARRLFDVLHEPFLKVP
The experiment in a line: co-IP; co-immunoprecipitation using the ERCC1 or the ZFC3H1 antibody; cells, buffer and conditions not told; no figure shown.

The target in test [2] is ZFC3H1 (human (endogenous in HeLa)) (UniProt O60293). The description is as above.

Regarding ZFC3H1 (from UniProt O60293 1-1989), the binding result in test [1] is recorded as “no binding”.

B1: ERCC1 (protein, UniProt P07992 1-297)
chain: T1 sequence
For the molecule B1, the binding entry in test [2] is given as “no binding”.
